Test results as given in patent US20240400711A1.
Results are given in words; binding and its absence hold for the method and conditions named. Some binding calls cover weakened binding; strength is not graded here.

The chains behind the UniProt entries cited, without tags or fusion partners. Residues count along the entry.
UniProt Q5VAN0, residues 44-301: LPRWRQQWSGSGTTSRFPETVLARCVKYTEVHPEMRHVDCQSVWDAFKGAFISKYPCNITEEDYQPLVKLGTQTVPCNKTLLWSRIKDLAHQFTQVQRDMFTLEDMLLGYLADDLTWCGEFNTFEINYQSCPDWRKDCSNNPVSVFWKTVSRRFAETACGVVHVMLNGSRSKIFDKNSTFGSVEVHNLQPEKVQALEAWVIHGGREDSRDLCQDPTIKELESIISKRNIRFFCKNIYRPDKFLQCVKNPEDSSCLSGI

Experiments:
[1] = molecular target: cynomolgus CD38 antigen protein (cynomolgus) (UniProt Q5VAN0); test: ELISA on coated antigen
[2] = molecular target: cynomolgus CD38 antigen protein (cynomolgus) (UniProt Q5VAN0); test: ELISA on coated cynomolgus CD38 antigen (1 µg/mL), antibody 0.41152-300 µg/ml [panel Cynomolgus CD38]

B1: H2 antibody (antibody, V domains shown)
VH: EVQLQESGAELVRSGASVKMSCKASGYTFTDYNVHWIKQTPGQGLEWIGYFYPRNGATHYNQKFTGKATLTADTSSSTAYIQISSLTSEDSAVYFCARGETPGTFPYWGQGTLVTVSA
VL: DIVLTQSPASLTVSLGQRATISCRASESVDNFGITFMHWYQQKPGQPPKLLIYRASNLESGIPARFSGSGSRTDFTLTIDPVETDDVATYYCQQSSKDPRTFGGGTKLEIK
For B1, the binding [1] was “binds” and the binding [2] was “binds”.
